From PubChem BioAssay AID624297 (National Center for Advancing Translational Sciences (NCATS), 2012)
Several values for one entry are separate records, joined by “and”; a condition that tells them apart may be missing. Equal values may be shown once. In all, about 340,000 compounds went through this assay and about 6,200 (1.8%) were called active. Inconclusive results, whose numbers are uncertain, are shown with a selection of clear calls. Calls follow the shape of the dose curve; as a rule, active = well fitted activation curve with a large enough effect; inconclusive = small, poorly fitted or top-dose-only effect; inactive = no such curve, though single readings can be large or run the other way. Potencies of inconclusive entries are doubtful fits and often do not repeat.

Experiment: A quantitative high throughput screen for small molecules that induce DNA re-replication in SW480 colon adenocarcinoma cells. Also: nearly all actives have a fitted effect of over 55% in size. As to re-replication activation: % of control where 0% means no effect.
Details: Hoechst DNA content imaging, 48 h; re-replication activation: at 46.1 µM (top of the series) unless noted
How it was run: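 Compounds, transferred as 23 nL by pin tool, were incubated with cells for 48 hr; DNA content per nucleus was then quantified by Hoechst staining and fluorescence plate imaging.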
Potency is read from the fitted curve at half-maximal effect.

With CN(Cc1ccccc1)C(=O)COC(=O)c1cc(Cl)nc(Cl)c1 as the compound, how does the Potency read?
The Potency was “inactive”.

With O=C(CNC(=O)Cc1ccccc1)N=Nc1c(O)n(Cc2ccc3c(c2)OCO3)c2ccccc12 as the compound, how does the Potency read?
The Potency was “inactive”.

With O=C(COc1ccc(F)cc1)NN1C(=O)CSC1=S as the compound, how does the Potency read?
Its Potency is inconclusive: 3.66 µM [activator, full curve, poor fit].

For C#CCOCCOCCOCCNc1nc(N2CCN(C(=O)C([C@@H](C)CC)n3cc(C(N)COC(=O)C(F)(F)F)nn3)CC2)nc(N2CCN(C(=O)[C@H](Cc3cc4ccccc4[nH]3)n3cc(C(N)CO)nn3)CC2)n1 (some centres not stated), which Potency is on record?
Its Potency is “inactive”.

For O=C(O)C1=C[C@H](c2ccc3c(c2)OCO3)C[C@H](OCc2ccc(CO)cc2)O1, which Potency is on record?
Its Potency is inconclusive: 0.0046 µM [activator, full curve, poor fit].

With O=C(CCCCCNC(=O)N1CCn2c1nc1ccccc12)NCc1ccccc1Cl as the compound, how does the Potency read?
Its Potency is “inactive”.

With Cc1ccc(S(=O)(=O)Nc2cccc3cccnc23)cc1 as the compound, how does the Potency read?
Its Potency is inconclusive: 17.8 µM [activator, single point].

With CC(C)(C)Cc1nnc(NS(=O)(=O)c2ccc([N+](=O)[O-])cc2)s1 as the compound, how does the Potency read?
The Potency was “inactive”.

With CC1=C(C(=O)Nc2ccc(Cl)cc2C(=O)N2CCC(C(N)=O)CC2)SCCO1 as the compound, how does the Potency read?
Its Potency is “inactive”.

For C=CC[C@@H](CC(=O)N[C@@H](CO)Cc1ccccc1)C(=O)N[C@H](COC(=O)[C@@H](CC=C)CC(=O)OC(C)(C)C)Cc1ccccc1, which Potency is on record?
Its Potency is inconclusive: 25.9 µM [activator, single point].

For COc1ccc(Cl)cc1NC(=O)CN(C)C(=O)c1ccc(COc2ccccc2)cc1, which Potency is on record?
Its Potency is inconclusive: 20.6 µM [activator, partial curve, poor fit].

With COc1ccc(Nc2cnn(-c3nc4ccccc4s3)c(=O)c2Cl)cc1 as the compound, how does the Potency read?
The Potency was “inactive”.

With NS(=O)(=O)c1ccc(NC(=O)COC(=O)c2c3c(nc4ccccc24)/C(=C\c2ccc4c(c2)OCO4)CCC3)cc1 as the compound, how does the Potency read?
The Potency was active: 7.31 µM and active: 11.6 µM.

With COc1ccc(CCNC(=O)c2nnn(-c3cc(C)cc(C)c3)c2N)cc1OC as the compound, how does the Potency read?
The Potency was inconclusive: 20.6 µM [activator, partial curve, poor fit].

For CCOC(=O)[C@H]1[C@H]2COc3ccc(OC)cc3[C@@H]2N2C(=O)c3cc(OC)ccc3NC(=O)[C@@]12C, which Potency is on record?
The Potency was active: 6.51 µM.

With C(=C\c1nnc2c3ccccc3ncn12)/c1ccccc1 as the compound, how does the Potency read?
The Potency was inconclusive: 3.26 µM [activator, full curve, poor fit].

For CCCCOc1ccc(-c2nnn(CC(=O)NCCc3c[nH]c4ccccc34)n2)cc1, which Potency is on record?
Its Potency is “inactive”.

Which Potency does the source give for O=C(N/N=C/c1cc(Cl)ccc1O)c1ccc(Br)cc1 here?
Its Potency is active: 1.64 µM.

For Cc1oc2c(O)c(O)ccc2c(=O)c1-c1ccc(Cl)cc1, which Potency is on record?
Its Potency is inconclusive: 29.1 µM [activator, single point].

With CCc1ccc(C2=NN(CCC(=O)NC(C)CCc3ccccc3)C(=O)CC2)cc1 (configuration not stated) as the compound, how does the Potency read?
The Potency was “inactive”.

Which Potency does the source give for CCOc1ccc(-c2cn3ccccc3n2)cc1[N+](=O)[O-] here?
The Potency was inconclusive: 29.1 µM [activator, single point].

Which Potency does the source give for CC(CCc1ccccc1)NC(=O)CCNC(=O)Cn1ccc2ccccc2c1=O (configuration not stated) here?
Its Potency is inconclusive: 2.51 µM [activator, partial curve, poor fit].

Which Potency does the source give for COc1cccc2c1C(=N)c1c(O)c3c(c(O)c1C2=O)CC(O)(C(C)=O)CC3OC1CC(N)C(O)C(C)O1 (configuration not stated) here?
The Potency was inconclusive: 0.326 µM [activator, full curve].

For Cc1ccc2c(c1)c(C1=NC(=S)NC1=O)c(O)n2C, which Potency is on record?
Its Potency is “inactive”.

For CC(=O)Nc1nc(C(=O)O)cs1, which Potency is on record?
Its Potency is inconclusive: 29.1 µM [activator, partial curve, poor fit].

With CCN(CC)S(=O)(=O)c1ccc(N2CCc3ccccc3C2)nc1 as the compound, how does the Potency read?
The Potency was inconclusive: 29.1 µM [activator, single point].

For CCc1cc(C(=O)N2CCN(c3ncc(C(F)(F)F)cc3Cl)CC2)sc1C, which Potency is on record?
The Potency was inconclusive: 18.4 µM [activator, single point].

For Cc1[nH]nc(C(=O)NN=Cc2ccccc2Cl)c1N=NN(C)C, which Potency is on record?
The Potency was active: 14.6 µM.

Which Potency does the source give for O=C(N/N=C/c1ccc([N+](=O)[O-])o1)c1ccc(O)cc1 here?
The Potency was inconclusive: 32.6 µM [activator, partial curve, poor fit].

With O=C(NC(=S)Nc1cc([N+](=O)[O-])ccc1O)c1ccc2c(c1)OCO2 as the compound, how does the Potency read?
Its Potency is inconclusive: 23.1 µM [activator, single point].

With CN1CCN(C(c2ccccc2)c2ccc(Cl)cc2)CC1 (configuration not stated) as the compound, how does the Potency read?
Its Potency is inconclusive: 35.5 µM [activator, single point].

For Cc1ccc(/C=C/c2ccc3cccc(O)c3n2)s1, which Potency is on record?
The Potency was inconclusive: 29.1 µM [activator, single point].

For O=C(CN1CCN(c2ccc(F)cc2)CC1)N(C1CCCC1)C1CCS(=O)(=O)C1 (configuration not stated), which Potency is on record?
The Potency was “inactive”.

For CCN(CC)CCCNc1nc(-n2nc(C)cc2C)nc2sc3c(c12)CC(C)(C)OC3, which Potency is on record?
Its Potency is inconclusive: 29.1 µM [activator, single point].

Which Potency does the source give for COc1cccc(C2=CC(=O)C[C@H](c3ccc4c(c3)OCO4)C2)c1 here?
The Potency was “inactive”.

With Cc1cc(C)c(/C=N/NC(=O)c2nnn(-c3nonc3N)c2CN2CCC(C)CC2)c(C)c1 as the compound, how does the Potency read?
The Potency was inconclusive: 18.4 µM [activator, single point].

With CCCOc1ccc(C(=O)NNC(=S)NC(=O)c2cccs2)cc1 as the compound, how does the Potency read?
Its Potency is inconclusive: 0.651 µM [activator, full curve, poor fit].

For Cc1cccc2sc(N(CCCN(C)C)C(=O)c3ccc(C(=O)c4ccccc4)cc3)nc12, which Potency is on record?
Its Potency is inconclusive: 29.1 µM [activator, single point].

With Cn1c(-c2c(N)n(C3CCCC3)c3nc4ccccc4nc23)nc2ccccc21 as the compound, how does the Potency read?
The Potency was active: 11.6 µM.

For COc1ccc(CC(=O)N(C)Cc2ccc(C(C)(C)C)cc2)cc1S(=O)(=O)N1CCOCC1, which Potency is on record?
Its Potency is inconclusive: 9.2 µM [activator, partial curve, poor fit].

With Cc1cccc(NC(=O)C2(c3cccs3)CCOCC2)n1 as the compound, how does the Potency read?
Its Potency is “inactive”.

For O=C(COC(=O)C(Cc1ccccc1)NC(=O)c1cccs1)NCc1ccccc1 (configuration not stated), which re-replication activation is on record?
Its re-replication activation is inconclusive: -41.4% [activator].

For O=C(c1ccccc1)c1cccn1CC(=O)N1CCCCCC1, which Potency is on record?
The Potency was “inactive”.

For Cc1ccc(C(C(=O)NC2CCCCC2)N(Cc2ccccc2)C(=O)Cc2c[nH]c3ccccc23)o1 (configuration not stated), which Potency is on record?
The Potency was “inactive”.

For O=C(CCNC(=O)Cn1ccc2ccccc2c1=O)NCCCN1CCN(c2ccccc2F)CC1, which Potency is on record?
Its Potency is “inactive”.

Which Potency does the source give for Clc1cccc(-c2nc3nc4ccccc4nc3n2Cc2ccccc2)c1 here?
The Potency was inconclusive: 16.4 µM [activator, partial curve, poor fit].

Which Potency does the source give for Cc1ccc2c(c1)C1CN(C)CCC1N2S(=O)(=O)c1cc(C(F)(F)F)ccc1Cl (configuration not stated) here?
The Potency was inconclusive: 18.4 µM [activator, single point].

For S=C1NC2=C(CCCC2=C2SCCS2)C(c2ccccc2)N1 (configuration not stated), which Potency is on record?
Its Potency is inconclusive: 16.4 µM [activator, partial curve, poor fit].

With Cc1cccn2c(=O)c3cc(C(=O)NCc4ccco4)c(=N)n(CCc4ccccc4)c3nc12 as the compound, how does the Potency read?
The Potency was active: 18.4 µM.

With CCN(CC)S(=O)(=O)c1ccc(C(=O)NCc2ccc3[nH]c4c(c3c2)CCCC4)cc1 as the compound, how does the Potency read?
Its Potency is inconclusive: 29.1 µM [activator, single point].

Which Potency does the source give for CC(C)(C)NC(=S)N/N=C/c1c(Cl)cccc1Cl here?
The Potency was “inactive”.

For COc1ccc(N2C(=O)Cc3ccccc3C2=O)cc1, which Potency is on record?
Its Potency is “inactive”.

Which Potency does the source give for COc1ccc(C(=O)c2ccc(OC)cc2O)c(O)c1 here?
Its Potency is “inactive”.

For CN(C(=O)c1cccc(NC(=O)Cc2cccc(NC(=O)C3CCN(C(=O)C4CCC4)CC3)c2)c1)C1CCC1, which Potency is on record?
The Potency was inconclusive: 25.9 µM [activator, partial curve, poor fit].

With COc1ccc(/C=C2\CCc3ccccc3C2=O)cc1OC as the compound, how does the Potency read?
Its Potency is inconclusive: 29.1 µM [activator, partial curve, poor fit].

With CS(=O)(=O)c1ccc2nc(NC(=O)c3ccc(=O)[nH]c3)sc2c1 as the compound, how does the Potency read?
The Potency was inconclusive: 20.6 µM [activator, partial curve, poor fit].

Which Potency does the source give for COc1cccc(CC2(CO)CCN(CC3=CC[C@H]4C[C@@H]3C4(C)C)CC2)c1 here?
Its Potency is inconclusive: 29.1 µM [activator, single point].

Which Potency does the source give for COc1ccc(OC)c(NC(=O)CC2SC(=NCc3ccccc3)NC2=O)c1 (configuration not stated) here?
Its Potency is inconclusive: 20.6 µM [activator, single point].

For COC(=O)c1cc(=O)n(Cc2ccco2)c(=Nc2ccc(F)c(Cl)c2)s1, which Potency is on record?
The Potency was inconclusive: 16.4 µM [activator, partial curve, poor fit].

Which Potency does the source give for Cc1ccc(OCC(=O)Nc2ccc3c(c2)C(=O)NC3=O)cc1 here?
Its Potency is “inactive”.

Which Potency does the source give for CCOC(=O)Cc1csc(NC(=O)CSC2=NCCS2)n1 here?
The Potency was inconclusive: 3.66 µM [activator, full curve, poor fit].

With CSc1ccccc1OCc1cc(C(=O)N(C)Cc2ccc(C)o2)no1 as the compound, how does the Potency read?
The Potency was inconclusive: 29.1 µM [activator, single point].

With COc1cc(C2NCC(c3ccc(Cl)cc3Cl)c3c2[nH]c2ccccc32)cc(OC)c1OC (configuration not stated) as the compound, how does the Potency read?
The Potency was inconclusive: 29.1 µM [activator, single point].

For CC(N)c1ccc(Cl)cc1Cl (configuration not stated), which re-replication activation is on record?
Its re-replication activation is inconclusive: 63.1% [activator].

With Cc1ccc(NC(=O)CSC2=NN3CCCC(=O)N=C3S2)cc1Cl as the compound, how does the Potency read?
The Potency was “inactive”.

With c1ccc(N2N=C(c3cccs3)CC2c2ccco2)cc1 (configuration not stated) as the compound, how does the Potency read?
Its Potency is active: 8.2 µM.

Which Potency does the source give for C[C@@H]1CC[C@]2(C(=O)O[C@@H]3O[C@H](CO)[C@@H](O)[C@H](O)[C@H]3O)CC[C@]3(C)C(=CCC4[C@@]5(C)C[C@@H](O)[C@H](O)[C@@](C)(C(=O)O[C@@H]6[C@H](O)C[C@@]7(C)C(CC[C@]8(C)C7CC=C7[C@H]9[C@](C(=O)O[C@@H]%10O[C@H](CO)[C@@H](O)[C@H](O)[C@H]%10O)(CC[C@@H](C)[C@@]9(C)O)CC[C@]78C)[C@@]6(CO)C(=O)O)C5CC[C@]43C)[C@@H]2[C@]1(C)O (some centres not stated) here?
Its Potency is inconclusive: 0.0326 µM [activator, full curve, poor fit].
